From publication PMC7819943, “Rice protein-binding microarrays: a tool to detect cis-acting elements near promoter regions in rice” come the findings set out here.

Chains of the proteins cited; added tags and fusions are not shown.
UniProt Q0JBA9, entry or part of it: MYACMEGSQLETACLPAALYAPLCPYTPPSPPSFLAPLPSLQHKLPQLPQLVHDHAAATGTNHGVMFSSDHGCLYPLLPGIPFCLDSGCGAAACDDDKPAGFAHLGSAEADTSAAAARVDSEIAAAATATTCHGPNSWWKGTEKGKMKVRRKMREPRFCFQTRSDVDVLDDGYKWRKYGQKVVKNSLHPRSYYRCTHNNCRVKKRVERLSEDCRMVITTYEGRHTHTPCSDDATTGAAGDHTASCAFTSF

This is one part of the list.

For the assay, the target named is OsWRKY34 (Oryza sativa, UniProt Q0JBA9 1-250). The experiment in a line: protein-binding microarray (RPBM); PBS, 2% BSA, 51.3 ng/ul salmon testes DNA, 50 uM zinc acetate, 200 nM TF, 25 C, 1 h; high values mean tight binding. As to conditions: protein: recombinant; tags: N-terminal polyhistidine and DsRed monomer fusion (pET32a); label: CyDye5-dUTP incorporated in the synthesized complementary strand; 3' TTTTT single-stranded linker to array surface; dsDNA, one strand shown. Summed up: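 Using Ni–NTA, transcription factors fused N-terminally to polyhistidine and DsRed were purified after expression in E. coli BL21-CodonPlus. These were incubated at 200 nM with a blocked, double-stranded custom Agilent array for 1 h at 25 °C in a buffer containing 50 µM zinc acetate, and the array was washed. The binding signal is per-feature fluorescence intensity (arbitrary units) on an Axon 4000B scanner.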
Consider “CACCCTGTCTCACTGTCGCCCCACTTTGACCACCGCCGCCCGGAGTCACCTAGTGCAG”, for which the binding signal is 10400 fluorescence intensity (a.u.).
Then “ACATTAGGTTGGAGTGGATTATTTTTTTCTATTCTTTTCCCGGAGTCACCTAGTGCAG”, with 12000 fluorescence intensity (a.u.); and “TACTGTAGCATCATTGTAGCGTATAGCCGCGCCCCTATCGCGGAGTCACCTAGTGCAG”, with 8300 fluorescence intensity (a.u.); and “ACTAATCGATTTGGACAGTTTGCATCGTAATCTCCACGGCCGGAGTCACCTAGTGCAG”, with 8210 fluorescence intensity (a.u.).
The value for “TGGTCACTGACCCCAGGTCGATCTCTCTCGTCTTCGTTTTCGGAGTCACCTAGTGCAG” was 9710 fluorescence intensity (a.u.); that for “TCGCCTCGTAACCGCCTGATTAATCCTCCGCTCCTGCAAGCGGAGTCACCTAGTGCAG” was 9510 fluorescence intensity (a.u.); that for “ATGCCATGAAAATAATCATATTATCATATATGCGTCCAATCGGAGTCACCTAGTGCAG” was 8220 fluorescence intensity (a.u.).
The value for “CGCCGCCTCGGCATCCGCGCCCACTCGTCGCCGCCTCGCCCGGAGTCACCTAGTGCAG” was 11000 fluorescence intensity (a.u.).
As to “GGCTGCTATTATATACTCTCTCTCCATCCACAAAAGTTACCGGAGTCACCTAGTGCAG”, the binding signal was 8580 fluorescence intensity (a.u.).
The value for “GTGCCGGGCGGCCCACATGGTCTATAGCTGTTCCTGGATTCGGAGTCACCTAGTGCAG” was 10600 fluorescence intensity (a.u.); that for “TCTCGATCCTTCCGCCCGCCCTTATCTCTTCTTTTTTCCACGGAGTCACCTAGTGCAG” was 8980 fluorescence intensity (a.u.); that for “TCTATTTGTTGTAATAGATACTCTCTATTTCGTGTTATAACGGAGTCACCTAGTGCAG” was 9500 fluorescence intensity (a.u.).
Then “TCCCTCCGCTGCCGCCGCCATCTACGCTCGCTTCCTCACGCGGAGTCACCTAGTGCAG”, with 9140 fluorescence intensity (a.u.).
Then “CACCACACGTCACGCTTCCACCTCCACCTCCACCTCACTGCGGAGTCACCTAGTGCAG”, with 11900 fluorescence intensity (a.u.).
As to “AGAGCAGTTTTTCTTTTCATTTCGTAAATTTCAGTCACTTCGGAGTCACCTAGTGCAG”, the binding signal is 9400 fluorescence intensity (a.u.).
The value for “TCCCGTTTTCCGTACCATTACTTAATCTTCATCTTATTAGCGGAGTCACCTAGTGCAG” was 12200 fluorescence intensity (a.u.).
Then “ACATAGCTTCATCTTTTGGTGGTTTAATAACTTTCTCTTCCGGAGTCACCTAGTGCAG”, with 9870 fluorescence intensity (a.u.); and “CCTGCATGGCCTCTGCGCCACCTTGCTGCTGCCCCGCCGACGGAGTCACCTAGTGCAG”, with 8210 fluorescence intensity (a.u.); and “ATTGATATCAAACCGTTTCTTTTGTCATATTCGTCATTTCCGGAGTCACCTAGTGCAG”, with 17700 fluorescence intensity (a.u.).
Then “TAACTTTTTCTTCAAACTTCCAATTTTTCCATCACATCAACGGAGTCACCTAGTGCAG”, with 8400 fluorescence intensity (a.u.); and “ATTCAGATTGGCTGGTATTTGCGCGTACAATATATTATAACGGAGTCACCTAGTGCAG”, with 8450 fluorescence intensity (a.u.); and “TACCTACACAGCATTATAGTGATATTGATTTTTCTTACCTCGGAGTCACCTAGTGCAG”, with 8850 fluorescence intensity (a.u.).
With “CGGTCAAACGTTTGATGTTACACCCAAAATTTTTCTTTTCCGGAGTCACCTAGTGCAG”, the binding signal was 8330 fluorescence intensity (a.u.).
On to “CAAAGGTTACCACCATTATTCTCTTCTCTCCTCCTAGTTTCGGAGTCACCTAGTGCAG”, for which the binding signal is 8860 fluorescence intensity (a.u.).
Then “TTATCTCTGTTGTTTAACGAAAACACTCGTATATATAGTCCGGAGTCACCTAGTGCAG”, with 8400 fluorescence intensity (a.u.).
Then “AGGACGGGGAAGATTCGTGCCCCGATTTTTTCGTGTTCGACGGAGTCACCTAGTGCAG”, with 8430 fluorescence intensity (a.u.); and “ACTTCAGCTATTGCCCGGTCACTCCCGATCAATTCCTGCCCGGAGTCACCTAGTGCAG”, with 10300 fluorescence intensity (a.u.); and “GCTCCCGCCCAAGACGAAGCTGACCACCATCACCTTCAGCCGGAGTCACCTAGTGCAG”, with 9980 fluorescence intensity (a.u.).
“GGATTGGATTTTTTTTGCCGCGCGGAACCAGCGCCGTACGCGGAGTCACCTAGTGCAG”: the binding signal was 8110 fluorescence intensity (a.u.).
The value for “CCAACCTCCGCCACCGCGGCCTCGAGCTGGTATAGAGCTCCGGAGTCACCTAGTGCAG” was 8710 fluorescence intensity (a.u.); that for “AAGTAGATTCTCTCATTTATTTATACATTTACACTGTTCACGGAGTCACCTAGTGCAG” was 8770 fluorescence intensity (a.u.).
On to “GTATTGTGGGTTAGGGATGTCGATTATACTCGACGTAAAGCGGAGTCACCTAGTGCAG”, for which the binding signal was 9160 fluorescence intensity (a.u.).
For “CACATGGGCCACTCAGCTGGTCACTTCCTTCTCTCCCACTCGGAGTCACCTAGTGCAG”, the binding signal is 9720 fluorescence intensity (a.u.).
As for “AATTCCATACGCCTCAATCCATAATTTATATAGTATTTTTCGGAGTCACCTAGTGCAG”, the binding signal is 8530 fluorescence intensity (a.u.).
The value for “GGTCTACTCCGGTTTTTATATTTTTAATTAAATTTTTATACGGAGTCACCTAGTGCAG” was 8120 fluorescence intensity (a.u.); that for “GTCCAGATACTAAGGTGTATGGTATTATCGGAAAACCTGTCGGAGTCACCTAGTGCAG” was 24300 fluorescence intensity (a.u.); that for “ATACGCTACATTCACATTCATACTCAGAAATGAGATTTTCCGGAGTCACCTAGTGCAG” was 9000 fluorescence intensity (a.u.).
Then “CCCATACCAATTTTATTTTTTCAGCGTACATACAATTAAACGGAGTCACCTAGTGCAG”, with 9140 fluorescence intensity (a.u.).
Then “CAGTTTTTTTACAAAATTTTGACAATATATTATCCTATTTCGGAGTCACCTAGTGCAG”, with 8550 fluorescence intensity (a.u.).
As for “GAAATGATGGCTTTCTTTGATTTCCTTTGCTAGCTTACTTCGGAGTCACCTAGTGCAG”, the binding signal is 9010 fluorescence intensity (a.u.).
The value for “CCAGAGAGCTCTCGTCGCGCGCGCGCACTTTTCTCCTCTCCGGAGTCACCTAGTGCAG” was 9260 fluorescence intensity (a.u.); that for “TAACCCACAACCTACACTGCTAACTGTATCTGTGTTATGACGGAGTCACCTAGTGCAG” was 8230 fluorescence intensity (a.u.).
